Results as given in US10034836B2, “Formulations of guanylate cyclase C agonists and methods of use” (SYNERGY PHARMACEUTICALS, INC., priority 2008, dated 2018).
“Also recorded” adds a separate entry of the source. Part of at least one peptide drawing is inferred or uncertain, most often the ends. Where a SMILES comes first, the peptide text is derived from it. Bridges are numbered along the chain shown (N, C = ends).

Legend:
[1] = system: T84 cells; experiment: cGMP synthesis in T84 cells, GCC agonist alone or in combination with PDE inhibitors; assay type: cell-based, human; details: 30 min, more pronounced at 0.1 μM SP-304
Description: FIG. 9: Stimulation of cGMP synthesis in T84 cells by SP-304 (0.1 μM) either alone or in combination with the phosphodiesterase (PDE) inhibitors Sulindac Sulfone (100 μM) or Zaprinast (100 μM). T84 cells were exposed to various treatments, as indicated, for 30 min and the cell lysates were used to determine the intracellular cGMP levels. Data points shown are the average of duplicate measurements.
FIG. 10: Stimulation of cGMP synthesis in T84 cells by SP-304 (0.1 or 1.0 μM) either alone or in combination with incremental concentrations of phosphodiesterase (PDE) inhibitors, as indicated. T84 cells were exposed to various treatments, as indicated, for 30 min and the cell lysates were used to determine the intracellular cGMP levels. Data points shown are the average of duplicate measurements. […]
SS and ZAP in combination with SP-304 or SP-333 were evaluated to see if these PDE inhibitors had any synergistic effects on intracellular accumulation of cGMP (FIG. 9-12). […]
For the results shown in FIG. 9, cyclic GMP synthesis in T84 cells was assessed essentially as described in Shailubhai et al., Cancer Research 60, 5151-5157 (2000). […] Following centrifugation and the addition of NaOH (0.1 N) to neutralize the pH, intracellular cGMP levels were determined in lysates using a cGMP ELISA kit (Cat. No. 581021; Cayman Chemical, Ann Arbor, Mich.). […]

[2] = system: cynomolgus monkeys; experiment: Repeated oral dose toxicity study of SP-304 in cynomolgus monkeys (14 days); assay type: in vivo; details: cynomolgus monkeys (FIG. 14)
Description: The primary purpose of this experiment was to evaluate the toxicity and pharmacokinetics of a repeated oral dose of SP-304 in cynomolgus monkeys. […] Monkeys returned to normal stool consistency within 24-48 hours following the last dose of SP-304.

[3] = system: mice treated with TNBS; experiment: Stool consistency in TNBS-induced murine model of colitis; assay type: in vivo
From the text: The anal administration of trinitrobenzene sulphonic acid (TNBS) is typically used to produce intestinal blockage, resulting in poor stool consistency.

[4] = system: healthy male and female subjects; experiment: Phase 1 single ascending oral dose study, pharmacodynamics (BSFS score, time to first stool); assay type: in vivo, human
[5] = system: BDF1 mice; experiment: DSS-induced colitis in BDF-1 mice; assay type: in vivo
Description: The cGMP pathway mediates the anti-inflammatory effects of cellular molecules such as nitric oxide and heme oxygenase-1. […] The anti-inflammatory effects of the GCC agonist SP-304 were evaluated in a murine model of ulcerative colitis, the DSS-induced colitis model.
Forty eight BDF1 mice were divided into 8 treatment groups (6 mice/group). One group was not exposed to DSS (untreated control) and groups […] were treated with 5% DSS in the drinking water. DSS was refreshed daily. All mice were weighed on day −1, and treated with the test materials beginning on day −1. 4 hrs post dosing on Day 0, DSS was placed in the drinking water of groups 2-8 and DSS remained in the water until the end of the study. The test agents were administered at 9 AM daily until day 7. Animals were treated with a single dose of test agents and the groups were as follows:
All doses were administered by oral gavage using a 0.1 ml dose per 10 g body weight. To avoid cage-to-cage variation, different treatment groups were housed in the same cage and animals were ear punched for identification purposes. Mice were sacrificed on day 7, 4-6 hrs post last dosing. The animals were also subjected to internal examination of the major organs for any gross abnormalities. The distal section of the large intestine (sufficient for histopathological examination) was removed and fixed in Carnoy's solution and embedded in paraffin. Two non-serial sections per slide were cut and H&E stained for visual severity score analysis. All slides were scored in a blinded manner.
Five different sections of the tissue were examined for histopathological scoring and the scores were averaged for each mouse. The histopathology scores in FIG. 17 are expressed as an average of 6 mice.

[6] = system: BDF-1 mice; experiment: TNBS-induced colitis in BDF-1 mice; assay type: in vivo
[7] = system: mice; experiment: Bloating in segments of the GI tract of mice after single oral dose; assay type: in vivo; details: for Animals with Bloating (% of total), Cecum / Animals with Bloating (% of total), Duodenum / Animals with Bloating (% of total), Jejunum / Animals with Bloating (% of total), Stomach / Number of Animals with Bloating, Cecum / Number of Animals with Bloating, Duodenum / Number of Animals with Bloating, Jejunum / Number of Animals with Bloating, Stomach: 1200 mg/kg oral, 30 minutes
[8] = Aggregation of SP-304; assay type: physicochemical; details: promoted by acidic conditions

CC(C)C[C@H](NC(=O)[C@@H]1CSSC[C@@H]2NC(=O)[C@H](CC(C)C)NC(=O)[C@H](CCC(=O)O)NC(=O)[C@@H](NC(=O)[C@H](CCC(=O)O)NC(=O)[C@H](CC(=O)O)NC(=O)[C@@H](N)CC(N)=O)CSSC[C@H](NC(=O)[C@H](C)NC(=O)[C@H](C(C)C)NC(=O)[C@H](CC(N)=O)NC(=O)[C@H](C(C)C)NC2=O)C(=O)N[C@@H]([C@@H](C)O)C(=O)NCC(=O)N1)C(=O)O [SP-304, Asn^1-Asp^2-Glu^3-Cys^4-Glu^5-Leu^6-Cys^7-Val^8-Asn^9-Val^10-Ala^11-Cys^12-Thr^13-Gly^14-Cys^15-Leu^16] (H-NDECELCVNVACTGCL-OH; disulfide 4-12, 7-15)
cGMP production by combination of SS with SP-304 versus SP-304 alone [1]: several-fold more
water flow in the lumen of the GI tract [2]: increased water flow
TNBS-induced intestinal blockage ([3]; TNBS-induced murine model of colitis (FIG. 13)): clears TNBS-induced intestinal blockage
stool consistency score versus minus TNBS control ([3]; dose between 0.05 to 0.5 mg/kg body weight, oral): completely restore
stool consistency in mice treated with TNBS ([3]; oral administration (FIG. 13)): considerably improved; also recorded: improved stool consistency
time to first bowel movement ([4]; doses ranging from 2.7 to 48.6 mg, 24 hours period following dosing, placebo 10.6 hours): 3 to 6 h
BSFS score relative to placebo-treated volunteers ([4]; single dose 0.1 mg up to 48.6 mg (FIG. 15A-B)): increase in BSFS score
inflammation in the colon tissue (histopathology score) ([5]; 5% DSS, doses ranging from 0.005 to 5 mg/kg/body weight, oral gavage daily): reduced inflammation
colon weight ([5]; DSS-induced colitis in BDF-1 mice): did not change the colon weight considerably
activity to ameliorate inflammation compared to Sulfasalazine ([5]; DSS-induced colitis in BDF-1 mice (FIGS. 17A-B)): superior activity compared to Sulfasalazine
colonic inflammation (histological severity score) ([6]; TNBS, dose as low as 0.05 mg/kg body weight, daily for seven days): significantly reduced colonic inflammation
activity to ameliorate inflammation compared to Sulfasalazine ([6]; TNBS-induced colitis in BDF-1 mice (FIG. 18)): superior activity compared to Sulfasalazine
potency compared with sulfasalazine ([6]; TNBS, SP-304 as low as 0.05 mg/kg versus sulfasalazine 80 mg/kg body weight): comparable to sulfasalazine
Animals with Bloating (% of total), Cecum ([7]; Female Mice n = 6): 0 (0%)
Animals with Bloating (% of total), Duodenum ([7]; Female Mice n = 6): 33%
Animals with Bloating (% of total), Jejunum ([7]; Female Mice n = 6): 100%
Animals with Bloating (% of total), Stomach ([7]; Female Mice n = 6): 33%
Number of Animals with Bloating, Cecum ([7]; Female Mice n = 6): 0 (0%)
Number of Animals with Bloating, Duodenum ([7]; Female Mice n = 6): 2
Number of Animals with Bloating, Jejunum ([7]; Female Mice n = 6): 6
Number of Animals with Bloating, Stomach ([7]; Female Mice n = 6): 2
Animals with Bloating (% of total), Cecum ([7]; Male Mice n = 6): 2%
Animals with Bloating (% of total), Duodenum ([7]; Male Mice n = 6): 33%
Animals with Bloating (% of total), Jejunum ([7]; Male Mice n = 6): 100%
Animals with Bloating (% of total), Stomach ([7]; Male Mice n = 6): 50%
Number of Animals with Bloating, Cecum ([7]; Male Mice n = 6): 1
Number of Animals with Bloating, Duodenum ([7]; Male Mice n = 6): 2
Number of Animals with Bloating, Jejunum ([7]; Male Mice n = 6): 6
Number of Animals with Bloating, Stomach ([7]; Male Mice n = 6): 3
site of bloating in the gastrointestinal tract ([7]; single dose by oral gavage, sacrificed 30 minutes later, not in cecum or distal intestine (ileum and colon)): bloating only in the stomach and in the proximal intestine
concentration at which aggregation begins [8]: ≥ 1000 µg/mL
